The text below walks through data of PubChem BioAssay AID2685 (National Center for Advancing Translational Sciences (NCATS), 2010).

This experiment is described as follows: qHTS Assay for Lipid Storage Modulators in Drosophila S3 Cells.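 As to cell number change: cells counted by Cell Tracker Red CMTPX staining in the red channel.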 Conditions: BODIPY lipid droplet fluorescence, 18-24 h; for cell number change: measured here: cell count max response, cells fed with added oleic acid. Put shortly:
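Laser-scanning cytometry quantifies lipid droplet accumulation (500–530 nm total intensity; droplet/cell object ratio) in oleic acid-fed (400 uM added) Drosophila S3 cells treated with a concentration series. 20 uM Triacsin C defined 100% inhibition.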

Where [1] appears, read: measured here: cell number channel AC50, cells fed with added oleic acid.
Where [2] appears, read: measured here: lipid fluorescence (Fed channel) AC50, cells fed with added oleic acid.

This is one part of the list. These are further read-outs of the screen, such as a control signal, another cell line or another target. No call is given for them. Compounds called inactive in the main read-out are mostly missing here. Words in brackets tell the shape of the fitted curve; partial curves, single points and poor fits give uncertain potencies.

Consider `COc1ccc(NS(=O)(=O)c2ccc3nc(COc4ccc(Cl)c(C)c4)[nH]c3c2)cc1`, for which the cell number change is -53.8%. Under setting [1], the AC50 was 14.6 µM [falling, partial curve]. In addition, the half-maximal activity concentration (AC50) under setting [2] was 14.6 µM [falling, partial curve].

`CCCCc1ccc(NC(=O)CSc2nnc(C)c(=O)n2N)cc1`: the cell number change is -67%. Also, the AC50 under setting [1] is 14.6 µM [falling, partial curve]. Moreover, the half-maximal activity concentration (AC50) under setting [2] is 29.1 µM [falling, single point].

Consider `CC(=O)Nc1ccc(S(=O)(=O)N2CCC(C(=O)NCc3ccco3)CC2)cc1`, for which the cell number change is -9.63%. Further, the half-maximal activity concentration (AC50) under setting [2] is 29.1 µM [rising, single point].

Consider `Cc1cc(NC(=O)CSc2nc3cc4c(cc3c(=O)n2CCc2ccccc2)OCO4)no1`, for which the cell number change is 11.8%. In addition, under setting [2], the half-maximal activity concentration (AC50) is 0.326 µM [rising, partial curve, poor fit].

Regarding `COCC(=O)N1CCC(Oc2ccc(C(=O)NC(C)c3nc(C)sc3C)cc2)CC1` (centres undefined), the cell number change was found to be 23.6%. Besides, under setting [2], the half-maximal activity concentration (AC50) is 0.00461 µM [rising, full curve, poor fit].

For the compound `Cc1cc(C)n2nc(C(=O)N(C)c3c(N)n(Cc4ccccc4)c(=O)[nH]c3=O)nc2n1`, the AC50 under setting [2] is 23.1 µM [falling, partial curve, poor fit].

Consider `CCn1c(=O)cc(OCC(=O)NCCc2ccc(OC)c(OC)c2)c2ccccc21`, for which the cell number change amounted to 47.2%. Also, under setting [2], the AC50 was 0.651 µM [rising, full curve].

As for `Nc1c(C(=O)Nc2ccccc2)nnn1-c1ccc2c(c1)OCCO2`, under setting [2], the AC50 is 8.2 µM [rising, partial curve, poor fit].

For `CCOc1ccccc1N1CCN(Cc2ccc(OC)c(OC)c2)CC1`, the cell number change was found to be 1.08%. Besides, the concentration at half-maximal activity (AC50) under setting [2] was 0.058 µM [falling, full curve, poor fit].

`Cc1c(C(=O)N2CCC(C)CC2)oc2ccc3c(c12)C(O)CC1(CCCCC1)O3` (centres undefined): the cell number change is -63.1%. Further, the half-maximal activity concentration (AC50) under setting [1] was 29.1 µM [falling, single point].

Consider `COc1ccc(C2C3CCCCC3(O)CCN2C(=O)c2cccs2)cc1` (centres undefined), for which, under setting [1], the half-maximal activity concentration (AC50) was 0.651 µM [rising, single point].

Take `COc1ccc(-c2oc(/N=C/N3CCOCC3)c(C#N)c2-c2ccc(OC)cc2)cc1`: the cell number change is -7.46%.

In the case of `CCC(C)(c1nnnn1-c1c(C)cccc1C)N(N=O)c1cccc(C(F)(F)F)c1` (centres undefined), the cell number change was 3.48%. The half-maximal activity concentration (AC50) under setting [2] was 0.326 µM [rising, full curve, poor fit].

Turning to `CN1C(C(=O)NCc2ccco2)CC2Cn3c(nc4ccccc43)C21` (centres undefined), the cell number change was 6.67%. In addition, under setting [2], the AC50 was 4.11 µM [rising, full curve, poor fit].

For `Cc1cccc(OCC(=O)N2CCN(c3nnc(-c4ccccc4)c4ccccc34)CC2)c1`, the cell number change was 27.7%. Further, the AC50 under setting [2] was 23.1 µM [rising, single point].

Turning to `O=C(Nc1cccnc1)c1cccc(-c2cc3ccccc3oc2=O)c1`, the cell number change was -48%. Also, the concentration at half-maximal activity (AC50) under setting [1] was 29.1 µM [falling, single point]. The AC50 under setting [2] is 29.1 µM [falling, single point].

As for `Cc1onc(-c2c(F)cccc2Cl)c1C(=O)OCC(=O)NC1CC1`, the cell number change was -14.9%. Further, under setting [1], the AC50 was 0.291 µM [falling, partial curve, poor fit]. Moreover, the AC50 under setting [2] was 0.206 µM [falling, full curve, poor fit].

For the compound `CCc1nc(N)c(C#N)c(-c2ccncc2)c1C`, the cell number change was -1.47%. Besides, the concentration at half-maximal activity (AC50) under setting [2] was 18.4 µM [rising, single point].

`COc1ccc(S(=O)(=O)N(CCc2ccccc2)CC(=O)N2CCOCC2)cc1`: the cell number change is -9.96%. Further, the AC50 under setting [1] is 5.17 µM [rising, single point]. Moreover, under setting [2], the AC50 is 3.66 µM [rising, partial curve].

Consider `CCc1cc(=O)oc2c(C)c(OCC(=O)N3CCCc4ccccc43)ccc12`, for which the cell number change was 5.96%. Further, the AC50 under setting [2] was 5.17 µM [rising, partial curve].

For `CCOc1ccc(NC(=O)c2cc3ccccc3cc2O)cc1`, the cell number change was -51.3%. In addition, the half-maximal activity concentration (AC50) under setting [1] was 8.2 µM [falling, partial curve, poor fit]. For the same compound, the concentration at half-maximal activity (AC50) under setting [2] was 23.1 µM [falling, partial curve].

Turning to `CCCCN1CC(=O)N2[C@H]3c4ccccc4OC[C@@H]3[C@H](c3ccccc3)[C@]2(C)C1=O`, the cell number change amounted to 0.452%. Further, under setting [2], the AC50 was 0.184 µM [rising, full curve].

`CCOc1ccc(NC(=O)CNC(=O)c2nn(-c3ccc(OC)c(OC)c3)c(=O)c3ccccc23)cc1`: the cell number change turned out to be 184%. Under setting [1], the half-maximal activity concentration (AC50) is 14.6 µM [rising, partial curve].

Turning to `Cc1c(Cl)cccc1NC(=O)Nn1cnnc1`, the cell number change was -0.99%. In addition, the AC50 under setting [2] is 29.1 µM [rising, single point].

For `Cc1ccc(CNc2ccc(N3C(=O)CC(C)C3=O)cc2[N+](=O)[O-])cc1` (centres undefined), the cell number change is -37%. The half-maximal activity concentration (AC50) under setting [1] was 32.6 µM [falling, single point]. Moreover, under setting [2], the AC50 was 14.6 µM [falling, partial curve, poor fit].

On to `Cc1ccc(S(=O)(=O)N2CCN(C(=O)c3cc(=O)[nH]c4ccccc34)CC2)c(C)c1`, for which, under setting [1], the AC50 is 0.00461 µM [falling, full curve, poor fit].

As to `COc1ccc(CNC(=O)c2cc(C)nc3ccccc23)cc1OC`, the cell number change was -68.9%.

For the compound `Cc1nccn1-c1ccc(C=O)cc1`, the cell number change stood at 16%.

With `CCOC(=O)c1oc2ccccc2c1N`, the cell number change was determined as 21.5%. Besides, the half-maximal activity concentration (AC50) under setting [2] was 4.11 µM [falling, full curve].

Consider `CC(C)CNS(=O)(=O)c1ccc(OCC(=O)Nc2ccc3c(c2)OCO3)c(Cl)c1`, for which the half-maximal activity concentration (AC50) was 1.84 µM [rising, partial curve, poor fit] under setting [1] and 3.66 µM [rising, partial curve] under setting [2].

For `O=C(NCc1ccco1)c1cc2cc3ccc(Cl)cc3nc2o1`, the AC50 was 6.51 µM [rising, partial curve, poor fit] under setting [1] and 5.8 µM [rising, single point] under setting [2].

Take `Cc1ccc(-c2nc(C#N)c(N3CCC(C(N)=O)CC3)o2)cc1`: the cell number change was 24.8%. Moreover, under setting [2], the concentration at half-maximal activity (AC50) is 0.58 µM [rising, single point].

`Fc1ccc2[nH]c3c(N4CCN(c5ccccc5)CC4)ncnc3c2c1`: the cell number change is -41.9%. Besides, the AC50 under setting [1] was 18.4 µM [falling, single point].

Consider `CCOP(=O)(c1c(F)c(F)c(F)c(F)c1F)C(O)c1ccccc1` (centres undefined), for which the cell number change was found to be 11.6%. Further, the concentration at half-maximal activity (AC50) under setting [1] is 0.58 µM [falling, full curve]. Besides, under setting [2], the AC50 was 0.58 µM [falling, full curve].

On to `CO/N=C(/CS(=O)(=O)c1ccc(Br)cc1)c1ccc(OC)cc1`, for which the AC50 is, setting by setting: under setting [1], 6.51 µM [rising, single point]; under setting [2], 9.2 µM [rising, partial curve].

Turning to `COc1ccc(-c2[nH]n(-c3ccc([N+](=O)[O-])cc3)c(=O)c2C=NCc2ccncc2)cc1`, the cell number change worked out at 0.952%. Besides, the AC50 under setting [2] is 16.4 µM [rising, single point].

In the case of `COc1ccccc1N1CCN(C(=O)CSc2ncnc3c2cnn3-c2ccc(C)c(C)c2)CC1`, the cell number change came to 10.7%. Further, under setting [2], the AC50 is 0.731 µM [rising, full curve].

`Cc1csc(SCC(=O)c2c(N)n(CC(C)C)c(=O)n(C)c2=O)n1`: the AC50 by setting is: under setting [1], 1.3 µM [rising, partial curve]; under setting [2], 2.06 µM [rising, partial curve].

As to `Cc1ccc(C(=O)NC2CCN(CC(=O)Nc3cccc([N+](=O)[O-])c3)CC2)cc1`, the cell number change was 3.68%. Besides, the AC50 under setting [2] was 1.64 µM [rising, partial curve, poor fit].

For the compound `CC(Sc1nc(-c2ccccc2)cc(C(F)(F)F)n1)C(=O)O` (centres undefined), the cell number change came out at 18.3%. Moreover, the AC50 under setting [2] is 0.146 µM [rising, full curve, poor fit].

With `Cc1ccc(OCC(O)CN2C(=O)NC(C)(C)C2=O)c(C)c1` (centres undefined), the cell number change stood at 7.76%. Under setting [2], the AC50 is 0.0651 µM [falling, full curve, poor fit].

As for `CCOc1ccc(NC(=O)CC2C(=O)N(c3ccccc3)C(=O)N2CCOC)cc1` (centres undefined), the cell number change was determined as 33.7%. Further, the half-maximal activity concentration (AC50) under setting [1] was 1.3 µM [rising, full curve, poor fit]. For the same compound, the AC50 under setting [2] was 3.26 µM [rising, full curve].

As for `COc1ccccc1NC(=O)Nc1nc(CC(=O)Nc2cc(F)ccc2F)cs1`, under setting [2], the AC50 was 6.51 µM [falling, single point].

Consider `O=C(CCC(=O)Nc1ccc(F)cc1)N/N=C/c1ccc(F)cc1`, for which the cell number change is -6.38%. The AC50 under setting [2] was 0.00411 µM [rising, full curve, poor fit].

On to `COc1ccc(-n2cc(-c3ccccc3)c3c(=S)nc[nH]c32)cc1`, for which the cell number change came out at 16.1%.

In the case of `O=[N+]([O-])c1ccc(OCCn2cnc3ccccc32)cc1`, the cell number change came to 20.8%.

For the compound `CCOc1cc(/C=N/N=C2/NC(=O)C(CC(=O)O)S2)ccc1OCc1ccc(Cl)cc1` (centres undefined), the cell number change is 10.3%. Moreover, under setting [1], the AC50 is 6.51 µM [rising, partial curve, poor fit]. In addition, the AC50 under setting [2] is 0.00517 µM [rising, full curve, poor fit].

Consider `O=C(COC(=O)c1ccc(Cl)nc1)Nc1ncc(Cl)cc1Cl`, for which the cell number change came to 33.2%. The AC50 under setting [1] was 29.1 µM [rising, single point].

Take `CN(C(=O)COC(=O)c1ccc(=O)n(Cc2ccccc2)n1)C1CCCCC1`: the cell number change came out at 0.13%. Also, the AC50 under setting [2] is 29.1 µM [rising, single point].

Turning to `CCC(=O)c1ccc(OCC(=O)OCC(=O)Nc2c(C)n(C)n(-c3ccccc3)c2=O)cc1`, the AC50 under setting [1] is 0.00411 µM [falling, full curve, poor fit].

For `CN(Cc1cc(=O)[nH]c2ccccc12)C(=O)c1ccccc1`, the cell number change was 12.2%. In addition, under setting [2], the concentration at half-maximal activity (AC50) is 2.31 µM [falling, partial curve].

Turning to `O=C(c1ccc(F)c(S(=O)(=O)N2CCOCC2)c1)N(c1ccccc1)c1ccccn1`, the cell number change stood at 17.8%.

On to `Cc1ccc(S(=O)(=O)Nc2ccccc2CNc2ncc(Br)cc2Br)cc1`, for which the cell number change was -0.0785%. Under setting [2], the AC50 is 18.4 µM [falling, single point].

With `O=C(CSc1nc(N2CCOCC2)nc(N2CCOCC2)n1)Nc1ccc(Cl)cc1Cl`, the cell number change turned out to be 98.6%. In addition, the concentration at half-maximal activity (AC50) under setting [1] is 23.1 µM [rising, partial curve].

As for `O=C(O)c1ccc(Nc2nc(-c3ccc([N+](=O)[O-])cc3)nc3ccccc23)cc1`, the cell number change stood at 7.08%.

`CNC(=O)C1CN(C(=O)c2cccc(S(=O)(=O)N3c4ccccc4CC3C)c2)c2ccccc2O1` (centres undefined): the cell number change was -6.1%. Moreover, the half-maximal activity concentration (AC50) under setting [2] was 6.51 µM [rising, single point].
